In the supplement of paper PMC4604168 (melanoma cell lines):
The other results are listed elsewhere or left out. Repeats are few or missing, and single values can be far off.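 The apoptosis fraction was the count of cleaved-PARP antibody-stained nuclei relative to all DNA-stained nuclei, imaged in 1,536-well plates. Screening doses were set so most cells survived, and baseline and induced cleaved-PARP levels vary greatly across cell lines.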

How the values were obtained:
Assay in all cases: cleaved PARP positive nuclei fraction relative to DMSO control; melanoma cells; higher = more apoptosis
Details in all cases: library dose: low library concentration; 72 h
WM115 = system: WM115
WM1716 = system: WM1716
WM1745 = system: WM1745
WM3526 = system: WM3526
WM3619 = system: WM3619
WM451Lu = system: WM451Lu

SMILES	cleaved PARP positive nuclei fraction (WM115)	cleaved PARP positive nuclei fraction (WM1716)	cleaved PARP positive nuclei fraction (WM1745)	cleaved PARP positive nuclei fraction (WM3526)	cleaved PARP positive nuclei fraction (WM3619)	cleaved PARP positive nuclei fraction (WM451Lu)
CC(=O)O[C@@]12CO[C@@H]1C[C@H](O)[C@@]1(C)C(=O)[C@H](O)C3=C(C)[C@@H](OC(=O)[C@H](O)[C@@H](NC(=O)OC(C)(C)C)c4ccccc4)C[C@@](O)([C@@H](OC(=O)c4ccccc4)[C@H]21)C3(C)C [Docetaxel] + OCc1c[nH]c2ccccc12 [Indole-3-carbinol] (first compound 0.0001 µM, partner dose 0.8 µM)	305%	559%	170%	134%	136%	161%
CC1(C)CCC(c2ccc(Cl)cc2)=C(CN2CCN(c3ccc(C(=O)NS(=O)(=O)c4ccc(N[C@H](CCN5CCOCC5)CSc5ccccc5)c(S(=O)(=O)C(F)(F)F)c4)cc3)CC2)C1 + COc1ccc(C2=N[C@@H](c3ccc(Cl)cc3)[C@@H](c3ccc(Cl)cc3)N2C(=O)N2CCNC(=O)C2)c(OC(C)C)c1 [Nutlin-3] (first compound 0.4 µM, partner dose 0.1 µM)	475%	82.8%	860%	127%	104%	134%
CN(c1ncccc1CNc1nc(Nc2ccc3c(c2)CC(=O)N3)ncc1C(F)(F)F)S(C)(=O)=O + CC(C)CCN1c2nc(Nc3cc(F)c(O)c(F)c3)ncc2N(C)C(=O)C1C [BID1870] (first compound 0.08 µM, partner dose 0.2 µM)	233%	58.4%	115%	75.6%	88.2%	288%
NC(=O)c1ccc(N(C(N)=O)c2c(F)cccc2F)nc1-c1ccc(F)cc1F + O=C1NC(=O)/C(=C/c2ccc(-c3ccc(F)cc3O)o2)S1 [AS252424] (first compound 0.4 µM, partner dose 1 µM)	122%	206%	97.4%	204%	86.2%	32.2%
CC1(C)CCC(c2ccc(Cl)cc2)=C(CN2CCN(c3ccc(C(=O)NS(=O)(=O)c4ccc(N[C@H](CCN5CCOCC5)CSc5ccccc5)c(S(=O)(=O)C(F)(F)F)c4)cc3)CC2)C1 + Nc1ncn([C@H]2C[C@H](O)[C@@H](CO)O2)c(=O)n1 [decitabine] (first compound 0.4 µM, partner dose 0.1 µM)	315%	106%	181%	48.8%	122%	48.2%
CC(=O)O[C@@]12CO[C@@H]1C[C@H](O)[C@@]1(C)C(=O)[C@H](O)C3=C(C)[C@@H](OC(=O)[C@H](O)[C@@H](NC(=O)OC(C)(C)C)c4ccccc4)C[C@@](O)([C@@H](OC(=O)c4ccccc4)[C@H]21)C3(C)C [Docetaxel] + COCC[n+]1c2c(n(Cc3cnccn3)c1C)C(=O)c1ccccc1C2=O [YM155] (first compound 0.0001 µM, partner dose 0.0004 µM)	403%	150%	189%	282%	128%	124%
COc1ccc(C2=N[C@@H](c3ccc(Cl)cc3)[C@@H](c3ccc(Cl)cc3)N2C(=O)N2CCNC(=O)C2)c(OC(C)C)c1 [Nutlin-3] + COc1cc(N2CCC(N3CCN(C)CC3)CC2)ccc1Nc1ncc(Cl)c(Nc2ccccc2S(=O)(=O)C(C)C)n1 [NVP-TAE684] (first compound 0.1 µM, partner dose 0.08 µM)	74.7%	56.4%	107%	87.4%	90.2%	153%
CCN(CC)CCNC(=O)c1c(C)[nH]c(/C=C2\C(=O)Nc3ccc(F)cc32)c1C [sunitinib] + CC(C)CCN1c2nc(Nc3cc(F)c(O)c(F)c3)ncc2N(C)C(=O)C1C [BID1870] (first compound 0.4 µM, partner dose 0.2 µM)	151%	115%	93.1%	103%	211%	60.3%
CS(=O)(=O)c1ccc(C(=O)Nc2ccc(Cl)c(-c3ccccn3)c2)c(Cl)c1 [vismodegib] + O=C(O)[C@@H]1[O][Sb](=[O])([O][Sb]2(=[O])[O][C@H]([C@H](O)CO)[C@H](O)[C@H](C(=O)O)[O]2)[O][C@H]([C@H](O)CO)[C@@H]1O [stibogluconate] (first compound 1 µM, partner dose 2 µM)	43.7%	97.1%	103%	23.2%	97.3%	40.7%
CCCCCCCCc1ccc(CCC(N)(CO)CO)cc1 [fingolimod] + COc1cc(Nc2ncc(F)c(Nc3ccc4c(n3)NC(=O)C(C)(C)O4)n2)cc(OC)c1OC [Tamatinib] (first compound 2 µM, partner dose 0.4 µM)	55.4%	83.8%	258%	186%	95.3%	63.5%
CC1(C)CCC(c2ccc(Cl)cc2)=C(CN2CCN(c3ccc(C(=O)NS(=O)(=O)c4ccc(N[C@H](CCN5CCOCC5)CSc5ccccc5)c(S(=O)(=O)C(F)(F)F)c4)cc3)CC2)C1 + N#Cc1c(O)c2c(-c3ccc(-c4ccccc4O)cc3)csc2[nH]c1=O [A769662] (first compound 0.4 µM, partner dose 2 µM)	108%	158%	1320%	27.7%	108%	56.8%
Cn1cnc2c(F)c(Nc3ccc(Br)cc3Cl)c(C(=O)NOCCO)cc21 [selumetinib] + COc1cc2ncnc(Nc3ccc(Oc4ccccc4)cc3)c2cc1OC [SrcI1] (first compound 0.015 µM, partner dose 2 µM)	61.4%	90.9%	99.2%	202%	100%	104%
CC1(C)CCC(c2ccc(Cl)cc2)=C(CN2CCN(c3ccc(C(=O)NS(=O)(=O)c4ccc(N[C@H](CCN5CCOCC5)CSc5ccccc5)c(S(=O)(=O)C(F)(F)F)c4)cc3)CC2)C1 + COc1ccc(-c2ccc3c(N4CCOCC4)nc(N4C[C@@H](C)O[C@@H](C)C4)nc3n2)cc1CO [KU0063794] (first compound 0.4 µM, partner dose 0.02 µM)	117%	254%	1010%	111%	120%	174%
CS(=O)(=O)c1ccc(C(=O)Nc2ccc(Cl)c(-c3ccccn3)c2)c(Cl)c1 [vismodegib] + CC(C)CCN1c2nc(Nc3cc(F)c(O)c(F)c3)ncc2N(C)C(=O)C1C [BID1870] (first compound 1 µM, partner dose 0.2 µM)	60.2%	197%	81.6%	69.5%	100%	47.5%
CS(=O)(=O)c1ccc(C(=O)Nc2ccc(Cl)c(-c3ccccn3)c2)c(Cl)c1 [vismodegib] + Cc1cc([N+](=O)[O-])ccc1NS(=O)(=O)c1cc(Cl)ccc1Cl [FH535] (first compound 1 µM, partner dose 1 µM)	236%	25.4%	83.1%	38%	100%	520%
CCN(CC)CCNC(=O)c1c(C)[nH]c(/C=C2\C(=O)Nc3ccc(F)cc32)c1C [sunitinib] + COc1cc(N2CCC(N3CCN(C)CC3)CC2)ccc1Nc1ncc(Cl)c(Nc2ccccc2S(=O)(=O)C(C)C)n1 [NVP-TAE684] (first compound 0.4 µM, partner dose 0.08 µM)	134%	305%	127%	140%	71%	51.1%
Cn1cnc2c(F)c(Nc3ccc(Br)cc3Cl)c(C(=O)NOCCO)cc21 [selumetinib] + COc1ccc(Cl)c(Nc2nc3ccccc3nc2NS(=O)(=O)c2cccc(NC(=O)C(C)(C)N)c2)c1 [XL147] (first compound 0.015 µM, partner dose 0.8 µM)	66%	67.9%	108%	49.6%	121%	30.7%
CCCCCCCCc1ccc(CCC(N)(CO)CO)cc1 [fingolimod] + Nc1cccc2c1CN(C1CCC(=O)NC1=O)C2=O [lenalidomide] (first compound 2 µM, partner dose 1 µM)	47.6%	89.9%	112%	87%	122%	85.4%
CCCCCCCCc1ccc(CCC(N)(CO)CO)cc1 [fingolimod] + COc1ccc2c(c1)CCC1C2CCC2(C)C(NCCCCCCN3C(=O)C=CC3=O)CCC12 [U73122] (first compound 2 µM, partner dose 0.4 µM)	89.2%	163%	105%	41.8%	84.5%	48.8%
C[C@@H](N)c1ccc(C(=O)Nc2ccnc3[nH]ccc23)cc1 + CCCCCCCCCCCC1=C(O)C(=O)C=C(O)C1=O [Embelin] (first compound 0.4 µM, partner dose 1.2 µM)	94%	109%	113%	77.8%	108%	77.7%
CC1(C)CCC(c2ccc(Cl)cc2)=C(CN2CCN(c3ccc(C(=O)NS(=O)(=O)c4ccc(N[C@H](CCN5CCOCC5)CSc5ccccc5)c(S(=O)(=O)C(F)(F)F)c4)cc3)CC2)C1 + OCc1c[nH]c2ccccc12 [Indole-3-carbinol] (first compound 0.4 µM, partner dose 0.8 µM)	239%	113%	841%	45.4%	186%	30.3%
NC(=O)c1ccc(N(C(N)=O)c2c(F)cccc2F)nc1-c1ccc(F)cc1F + C[C@]1(O)C[C@@H](c2nc(-c3ccc4ccc(-c5ccccc5)nc4c3)c3c(N)nccn32)C1 [OSI906] (first compound 0.4 µM, partner dose 0.4 µM)	140%	24.8%	145%	136%	455%	43.2%
C[C@]1(O)C[C@@H](c2nc(-c3ccc4ccc(-c5ccccc5)nc4c3)c3c(N)nccn32)C1 + C=CCNC1=C2C[C@@H](C)C[C@H](OC)[C@H](O)[C@@H](C)/C=C(\C)[C@H](OC(N)=O)[C@@H](OC)/C=C\C=C(/C)C(=O)NC(=CC1=O)C2=O [Tanespimycin] (first compound 0.4 µM, partner dose 0.002 µM)	60%	83.6%	114%	108%	89.4%	76%

A portion from further up, for reference:
SMILES	cleaved PARP positive nuclei fraction (WM115)	cleaved PARP positive nuclei fraction (WM1716)	cleaved PARP positive nuclei fraction (WM1745)	cleaved PARP positive nuclei fraction (WM3526)	cleaved PARP positive nuclei fraction (WM3619)	cleaved PARP positive nuclei fraction (WM451Lu)
CCN(CC)CCNC(=O)c1c(C)[nH]c(/C=C2\C(=O)Nc3ccc(F)cc32)c1C [sunitinib] + COc1cc(N2CCC(N3CCN(C)CC3)CC2)ccc1Nc1ncc(Cl)c(Nc2ccccc2S(=O)(=O)C(C)C)n1 [NVP-TAE684] (first compound 0.4 µM, partner dose 0.08 µM)	134%	305%	127%	140%	71%	51.1%
Cn1cnc2c(F)c(Nc3ccc(Br)cc3Cl)c(C(=O)NOCCO)cc21 [selumetinib] + COc1ccc(Cl)c(Nc2nc3ccccc3nc2NS(=O)(=O)c2cccc(NC(=O)C(C)(C)N)c2)c1 [XL147] (first compound 0.015 µM, partner dose 0.8 µM)	66%	67.9%	108%	49.6%	121%	30.7%
